Data on 1 molecule can be found in article PMC7312435, “Direct inhibition of the TLR4/MyD88 pathway by geniposide suppresses HIF‐1α‐independent VEGF expression and angiogenesis in hepatocellular carcinoma” (British Journal of Pharmacology, 2020).

By UniProt entry, the sequences of proteins in these tests, tags left out. Residues count along the entry.
UniProt O00206, residues 24-839: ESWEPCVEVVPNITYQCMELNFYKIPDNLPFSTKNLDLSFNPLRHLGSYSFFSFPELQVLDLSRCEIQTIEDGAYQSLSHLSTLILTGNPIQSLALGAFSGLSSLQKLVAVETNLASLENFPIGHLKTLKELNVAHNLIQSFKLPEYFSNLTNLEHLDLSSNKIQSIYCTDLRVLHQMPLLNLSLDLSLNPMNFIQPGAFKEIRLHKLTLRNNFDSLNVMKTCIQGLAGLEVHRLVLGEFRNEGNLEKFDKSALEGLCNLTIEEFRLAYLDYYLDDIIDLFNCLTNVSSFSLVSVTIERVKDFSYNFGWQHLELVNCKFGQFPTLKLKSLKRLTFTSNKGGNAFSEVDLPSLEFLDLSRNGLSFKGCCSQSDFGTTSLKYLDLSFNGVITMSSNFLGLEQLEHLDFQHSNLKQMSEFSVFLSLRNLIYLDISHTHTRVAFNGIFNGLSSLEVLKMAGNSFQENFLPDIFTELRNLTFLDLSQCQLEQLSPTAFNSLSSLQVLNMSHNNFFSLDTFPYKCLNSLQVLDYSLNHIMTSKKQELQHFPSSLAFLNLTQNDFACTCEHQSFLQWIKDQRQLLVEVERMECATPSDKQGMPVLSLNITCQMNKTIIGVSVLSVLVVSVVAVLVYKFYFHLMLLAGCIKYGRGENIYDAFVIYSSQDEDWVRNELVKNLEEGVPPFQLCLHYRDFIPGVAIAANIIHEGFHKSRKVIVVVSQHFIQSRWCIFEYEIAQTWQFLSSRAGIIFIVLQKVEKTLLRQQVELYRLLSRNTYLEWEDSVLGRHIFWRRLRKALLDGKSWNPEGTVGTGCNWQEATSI

These are yes or no findings as the source states them, for the method shown. Binding seen in cells or lysates may run through a third protein. Some binding calls cover weakened binding; strength is not graded here.

The target in the test is toll-like receptor 4 (human (endogenous in HCC cells)) (UniProt O00206). The test can be described thus: co-IP; Dynabeads Co-immunoprecipitation Kit; cells lysed in NP-40 cell lysis buffer after treatments (geniposide, LPS); antibody covalently coupled to Dynabeads; SDS-PAGE and immunoblot; which of the two proteins was precipitated is not told. (In general: Immunoblotting shows a protein as a band on a membrane.)

B1: MD2, also known as lymphocyte antigen 96 (protein, UniProt Q9Y6Y9 19-160)
chain: QKQYWVCNSSDASISYTYCDKMQYPISINVNPCIELKRSKGLLHIFYIPRRDLKQLYFNLYITVNTMNLPKRKEVICRGSDDDYSFCRALKGETVNTTISFSFKGIKFSKGKYKCVVEAISGSPEEMLFCLEFVILHQPNSN
Regarding B1, the binding result is “binds”.
